From paper PMC9182688
These are yes or no findings as the source states them, for the method shown. In cells and extracts the contact can be indirect. Some binding calls cover weakened binding; strength is not graded here.

Protein sequences, listed by entry. Tags and fused reporters are not part of them.
UniProt P09429: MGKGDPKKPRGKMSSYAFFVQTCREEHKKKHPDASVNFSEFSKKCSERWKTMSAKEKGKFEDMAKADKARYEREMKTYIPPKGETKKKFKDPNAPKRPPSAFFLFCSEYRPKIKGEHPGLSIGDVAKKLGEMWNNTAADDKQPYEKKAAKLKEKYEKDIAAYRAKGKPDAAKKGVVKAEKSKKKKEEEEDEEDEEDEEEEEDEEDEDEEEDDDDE
UniProt P03165: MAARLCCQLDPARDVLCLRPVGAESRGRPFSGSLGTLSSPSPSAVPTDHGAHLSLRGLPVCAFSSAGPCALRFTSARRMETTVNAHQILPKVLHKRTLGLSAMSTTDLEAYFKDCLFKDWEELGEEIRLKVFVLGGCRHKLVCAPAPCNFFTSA

Molecular target: high mobility group box 1 protein (HMGB1), endogenous (human (endogenous in HepG2)) (UniProt P09429)
Assay: co-IP; HepG2 cells transfected with FLAG-HBx for 3 days; endogenous HMGB1 immunoprecipitated with Anti-HMGB1/HMG1 magnetic beads IP kit; Western blot of HMGB1 and FLAG-HBx

N-terminally FLAG-tagged HBx protein (hepatitis B virus X protein) (from UniProt P03165 1-154)
binding: binds
